Results as given in paper PMC8031663, “Caveolin‐1‐driven membrane remodelling regulates hnRNPK‐mediated exosomal microRNA sorting in cancer”.
These are yes or no findings as the source states them, for the method shown. In cells and extracts the contact can be indirect. Some entries that bind do so weakly or less than the wild type.

Amino acid sequences for entries named in this document (tags omitted).
UniProt P35637: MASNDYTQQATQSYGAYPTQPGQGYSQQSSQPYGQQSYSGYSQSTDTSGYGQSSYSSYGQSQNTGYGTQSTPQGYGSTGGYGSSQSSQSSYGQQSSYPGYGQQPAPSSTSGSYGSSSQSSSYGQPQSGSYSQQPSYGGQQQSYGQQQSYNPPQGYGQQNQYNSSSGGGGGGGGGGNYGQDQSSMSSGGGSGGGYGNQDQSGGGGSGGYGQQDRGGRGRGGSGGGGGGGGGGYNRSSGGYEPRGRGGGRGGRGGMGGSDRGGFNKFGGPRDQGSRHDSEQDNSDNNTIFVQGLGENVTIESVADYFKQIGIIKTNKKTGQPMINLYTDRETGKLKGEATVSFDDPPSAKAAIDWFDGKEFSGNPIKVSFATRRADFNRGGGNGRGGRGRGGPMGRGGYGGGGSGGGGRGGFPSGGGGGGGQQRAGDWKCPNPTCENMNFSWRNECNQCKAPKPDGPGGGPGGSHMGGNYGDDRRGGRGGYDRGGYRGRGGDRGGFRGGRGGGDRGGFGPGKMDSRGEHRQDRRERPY
UniProt Q03135: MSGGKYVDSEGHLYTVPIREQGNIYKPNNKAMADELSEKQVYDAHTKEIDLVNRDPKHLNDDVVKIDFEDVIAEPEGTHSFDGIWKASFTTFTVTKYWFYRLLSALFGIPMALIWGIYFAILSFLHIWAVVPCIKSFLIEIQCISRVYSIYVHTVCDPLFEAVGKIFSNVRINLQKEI

What follows are substances tested against heterogeneous nuclear ribonucleoprotein K (human (endogenous in PC3)) (UniProt P61978) (assay: co-IP; hnRNPK co-immunoprecipitation from PC3-CONT and PC3-CAVIN1 whole cell lysates with Pierce magnetic Protein A/G beads; eluent blotted; non-targeting IgG as negative control).

binding	Substance
binds	FUS (from UniProt P35637 1-526)
binds	YB1 (from UniProt P67809 1-324)
no binding	caveolin-1 (from UniProt Q03135 1-178)
